Experimental data: patent US6060568A, “Carbene transition metal catalysts” (The Governors of the University of Alberta, priority 1999, dated 2000)

Experiments:
[1] = Solution phase ethylene polymerization, semi-batch reactor (SBR); conditions: GPC
Protocol: (§1) All the solution polymerization experiments described below were conducted using an Autoclave Engineers Zipperclave reactor (500 mL). All the chemicals (solvent, catalyst and cocatalyst) were fed into the reactor batchwise except ethylene which was fed on demand. No product was removed during the polymerization reaction. As are known to those skilled in the art, all the feed streams were purified prior to feeding into the reactor by contact with various absorption media to remove catalysts killing impurities such as water, oxygen, sulfur and polar materials. All components were stored and manipulated under an atmosphere of purified argon or nitrogen. The reactor uses a programmable logical control (PLC) system with Wonderware 5.1 s, oftware for the process control. Ethylene polymerizations were performed in the reactor equipped with an air driven stirrer and an automatic temperature control system.
(§2) The catalyst was dissolved in toluene. The polymerization reaction time is typically 10 minutes. The reaction was terminated by adding 5 mL of methanol to the reactor and the polymer was recovered by evaporation of the solvent. The polymerization activities were calculated based on the ethylene consumption.
(§3) Examples 1-18 were conducted on a solution semi-batch reactor (SBR).
SBR Experimental Conditions with MAO Activation
(§4) Catalyst Concentration 200 μmol/L
PMAO-IP Al/Zr = 300 (mol/mol)
(§5) Reaction Temperature 160° C.
(§6) Reactor Pressure 140 psig total
(§7) Stirring Speed 2000 rpm
(§8) SBR Experirimental Conditions with Trinitylborate Activation
(§9) PMAO-IP 1 mmol/L as impurity scavenger
^a SBR standard MAO screening conditions.
^b Insitu alkylation: PMAOIP (Al/M = 20) premixed with catalyst, the
mixture and tritylborate solution were injected into the reactor
^c SBR standard trityl borate screening conditions.
^d Premix catalyst and cocatalyst.
^e Zr(Bz)4 as scavenger at 1.2 mmol/L. […]

[2] = Solution phase copolymerization of ethylene with 1-octene, semi-batch reactor (SBR); conditions: [CPh3 ][B(C6 F5)4 ]; copolymerization with 20 mL of 1-octene; GPC
Protocol: Polymer molecular weights and molecular weight distributions were measured by GPC (Waters 150-C) at 140° C. in 1,2,4-trichlorobenzene calibrated using polyethylene standards.
as §1, §2, §3, §8, §4, §9, §5, §6, §7
^f Copolymerization with 20 mL of 1octene. Polymerization activities
were calculated based on polymer weight. 20.7 Br/1000 C detected by NMR
for copolymer produced in run 12.

[3] = SBR standard MAO screening: PMAO-IP, 160° C.
[4] = [CPh3 ][B(C6 F5)4 ], in situ alkylation, PMAO-IP (Al/M = 20)
[5] = SBR standard trityl borate screening: [CPh3 ][B(C6 F5)4 ]
[6] = [CPh3 ][B(C6 F5)4 ], Zr(Bz)4 as scavenger
[7] = [CPh3 ][B(C6 F5)4 ], premix catalyst and cocatalyst
[8] = cocatalyst B(C6 F5)3, footnote c conditions

Row | Compound | Polymer Mn*10^-3 [1, 3] | Polymer Mw*10^-3 [1, 3] | Polymer PD (Mw/Mn) [1, 3] | Polymer Mn*10^-3 [1, 5] | Polymer Mw*10^-3 [1, 5] | Polymer PD (Mw/Mn) [1, 5] | further results
1 | [Cl][Zr+2][Cl].c1cc[cH-]c1.c1cc[cH-]c1 [Cp2 ZrCl2, reference compound] | 2.2 | 7.8 | 4.6 |  |  |  | 
2 | [ZrCl2 {C(Cy2 =NSiMe3)2 }] [Zr-3C] | 0.25 | 67.3 | 269.2 |  |  |  | Polymer Mn*10^-3 [1, 4]: 139.1; Polymer Mw*10^-3 [1, 4]: 643.6; Polymer PD (Mw/Mn) [1, 4]: 4.63
3 | [Zr{C(Ph2 P=NSimMe3)2 }(CH2 C6 H5)2 ] [Zr-6D] |  |  |  | 38.1 | 153.9 | 4.04 | Polymer Mn*10^-3 [2]: 2.08; Polymer Mw*10^-3 [2]: 94.8; Polymer PD (Mw/Mn) [2]: 45.6; Polymer Mn*10^-3 [1, 6]: 3.45; Polymer Mw*10^-3 [1, 6]: 199.2; Polymer PD (Mw/Mn) [1, 6]: 57.7; Polymer Mn*10^-3 [1, 7]: 78.7; Polymer Mw*10^-3 [1, 7]: 535.1; Polymer PD (Mw/Mn) [1, 7]: 6.8; Polymer Mn*10^-3 [1, 8]: 20.1; Polymer Mw*10^-3 [1, 8]: 316.2; Polymer PD (Mw/Mn) [1, 8]: 15.73
4 | [ZrCl2 {C(Ph2 P=NSiMe3)2 }] [Zr-3D] | 0.45 | 52.5 | 116.7 |  |  |  | 
5 | [ZrMe2 {C(Cy2 =NSiMe3)2 }] [Zr-3C-Me2] |  |  |  | 127.1 | 449.1 | 3.53 | 
